Values from PubChem BioAssay AID1224826 (NIAID, 2016).
Here is one part, drawn at random, of about 17,000 deposited reagents. About 1,110 of them (6.6%) were called active. 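Active means lowered or raised reporter signal; replicate intensities are raw and not normalised per plate.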 Reagents against one gene are numbered here. Reagent sequences are not shown.

Test: 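Regulators of Tlr4 signalling leading to Tnf-alpha expression in macrophages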 (primary screen)
Cell system: RAW264.7 G9 macrophages from mouse bearing reporters for p65 (GFP) and the Tnf promoter (mCherry)
Knock-down reagent: siRNA pool against mouse genes, 100 nM
Timing: 16 h of LPS stimulation, after 2 days of siRNA transfection
Treatment: bacterial lipopolysaccharide (Salmonella minnesota R595), 10 ng/ml
Read-out: 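Imaged Tnf reporter mCherry in nuclei, minus background, normalised per plate to the median and expressed as robust z-scores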
Scale: Tnf reporter robust z-score: higher = stronger Tnf promoter reporter signal after LPS; Tnf reporter intensity: higher = stronger Tnf promoter reporter signal
Call rule: 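a well counts as active at a score of -1.3 or below (Tlr4 knock-down control median) or above 3 (raised signal); controls and wells holding fewer than 50 cells are excluded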
Meaning of the calls: active = Tnf reporter clearly lowered or raised; inactive = no clear change in Tnf reporter

gene symbol | reagent no. | Tnf reporter robust z-score | fewer than 50 cells in well | Tnf reporter intensity, replicate 1 | Tnf reporter intensity, replicate 2 | activity call
Furin | 1 | -0.64 | enough cells in well | 219 | 168 | inactive
Zhx2 | 1 | -1.42 | enough cells in well | 117 | 122 | active
Th | 1 | 0.4 | enough cells in well | 238 | 169 | inactive
Reg3b | 1 | 0.09 | enough cells in well | 233 | 199 | inactive
Npsr1 | 1 | 0.6 | enough cells in well | 238 | 219 | inactive
Pcp2 | 1 | – | fewer than 50 cells per well; well left out of calls | 214 | 130 | inactive
Snx30 | 1 | – | fewer than 50 cells per well; well left out of calls | 178 | 149 | inactive
Chrdl1 | 1 | 0.39 | enough cells in well | 189 | 195 | inactive
Csl | 1 | -0.52 | enough cells in well | 145 | 82.6 | inactive
Atp2a2 | 1 | -0.91 | enough cells in well | 96.6 | 108 | inactive
Ube2d2a | 1 | 1.25 | enough cells in well | 342 | 309 | inactive
Tesc | 1 | 2.93 | enough cells in well | 229 | 122 | inactive
Btnl1 | 1 | 0.8 | enough cells in well | 307 | 212 | inactive
Ltb4r1 | 1 | 0.05 | enough cells in well | 245 | 254 | inactive
Sh3gl2 | 1 | 0.12 | enough cells in well | 280 | 233 | inactive
Dis3l2 | 1 | -0.15 | enough cells in well | 206 | 60.2 | inactive
Trim7 | 1 | 4.07 | enough cells in well | 275 | 217 | active
Oog3 | 1 | -1.12 | enough cells in well | 95.4 | 86.3 | inactive
Tmod2 | 1 | -0.05 | enough cells in well | 108 | 98.2 | inactive
Adam15 | 1 | -1 | enough cells in well | 109 | 115 | inactive
Gas1 | 1 | -0.64 | enough cells in well | 206 | 180 | inactive
Ddx25 | 1 | 1.02 | enough cells in well | 236 | 230 | inactive
Slc15a1 | 1 | 0.18 | enough cells in well | 103 | 112 | inactive
Pax7 | 1 | 1.32 | enough cells in well | 213 | 115 | inactive
Orm1 | 1 | -0.24 | enough cells in well | 171 | 88.2 | inactive
Il17rb | 1 | -0.86 | enough cells in well | 213 | 75.8 | inactive
Chrd | 1 | -0.21 | enough cells in well | 135 | 188 | inactive
Pbld1 | 1 | -0.47 | enough cells in well | 239 | 51.5 | inactive
Orai3 | 1 | 0.37 | enough cells in well | 89.8 | 184 | inactive
Zfp646 | 1 | -0.21 | enough cells in well | 183 | 159 | inactive
D3Ertd751e | 1 | 0.67 | enough cells in well | 238 | 87.3 | inactive
Stx1a | 1 | -1.32 | enough cells in well | 138 | 135 | active
Zfp672 | 1 | -0.51 | enough cells in well | 173 | 38.7 | inactive
Zfp672 | 2 | – | fewer than 50 cells per well; well left out of calls | 156 | 57.9 | inactive
Foxo3 | 1 | 1.12 | enough cells in well | 331 | 344 | inactive

Entries above called active, once more:
gene symbol | reagent no. | Tnf reporter robust z-score | fewer than 50 cells in well | Tnf reporter intensity, replicate 1 | Tnf reporter intensity, replicate 2 | activity call
Zhx2 | 1 | -1.42 | enough cells in well | 117 | 122 | active
Trim7 | 1 | 4.07 | enough cells in well | 275 | 217 | active
Stx1a | 1 | -1.32 | enough cells in well | 138 | 135 | active

More reagents:
gene symbol | reagent no. | Tnf reporter robust z-score | fewer than 50 cells in well | Tnf reporter intensity, replicate 1 | Tnf reporter intensity, replicate 2 | activity call
Prkab2 | 1 | -0.17 | enough cells in well | 98.1 | 146 | inactive
Cfap206 | 1 | -1.77 | enough cells in well | 130 | 31.6 | active
Vmn1r181 | 1 | -0.18 | enough cells in well | 122 | 75.4 | inactive
Ces2b | 1 | 1.46 | enough cells in well | 312 | 304 | inactive
S100b | 1 | -0.39 | enough cells in well | 320 | 143 | inactive
Nrsn1 | 1 | -0.55 | enough cells in well | 97.8 | 84.3 | inactive
Tex14 | 1 | 1.45 | enough cells in well | 187 | 257 | inactive
Usp54 | 1 | -0.52 | enough cells in well | 98.7 | 73.1 | inactive
Usp54 | 2 | 1.74 | enough cells in well | 269 | 263 | inactive
Ahsa1 | 1 | 0.85 | enough cells in well | 238 | 193 | inactive
Meig1 | 1 | -0.58 | enough cells in well | 163 | 110 | inactive
Itgb2l | 1 | 1.02 | enough cells in well | 281 | 161 | inactive
Zfp326 | 1 | 0.29 | enough cells in well | 146 | 125 | inactive
Rrp36 | 1 | 2.08 | enough cells in well | 284 | 429 | inactive
Pgcka1 | 1 | -1.73 | enough cells in well | 124 | 18.4 | active
Lrr1 | 1 | -0.58 | enough cells in well | 107 | 101 | inactive
Polb | 1 | -0.2 | enough cells in well | 254 | 158 | inactive
Pctp | 1 | -0.79 | enough cells in well | 119 | 86.9 | inactive
Carf | 1 | -0.39 | enough cells in well | 132 | 131 | inactive
Gdf2 | 1 | 0.43 | enough cells in well | 302 | 262 | inactive
Col9a1 | 1 | -0.32 | enough cells in well | 223 | 168 | inactive
Fahd1 | 1 | 1.84 | enough cells in well | 255 | 256 | inactive
G6pc2 | 1 | 1.01 | enough cells in well | 387 | 277 | inactive
